According to PubChem BioAssay AID588590 (National Center for Advancing Translational Sciences (NCATS), 2011):
Out of some 390,000 compounds screened, about 4,000 (1%) were called active. The inconclusive results got no clear call from the source; some entries with a clear call stand among them for comparison. Calls come from the whole dose curve; as a rule, active = well fitted inhibition curve with a large enough effect; inconclusive = small, poorly fitted or top-dose-only effect, or another doubt; inactive = no such curve, though single readings can be large or run the other way. A potency beside an inconclusive call is a rough fit, not a confirmed value.

The chains behind the UniProt entries cited, without tags or fusion partners. Where a name states a change or a piece, a line headed by the entry shows the natural chain unless it says otherwise.
UniProt Q9UNA4: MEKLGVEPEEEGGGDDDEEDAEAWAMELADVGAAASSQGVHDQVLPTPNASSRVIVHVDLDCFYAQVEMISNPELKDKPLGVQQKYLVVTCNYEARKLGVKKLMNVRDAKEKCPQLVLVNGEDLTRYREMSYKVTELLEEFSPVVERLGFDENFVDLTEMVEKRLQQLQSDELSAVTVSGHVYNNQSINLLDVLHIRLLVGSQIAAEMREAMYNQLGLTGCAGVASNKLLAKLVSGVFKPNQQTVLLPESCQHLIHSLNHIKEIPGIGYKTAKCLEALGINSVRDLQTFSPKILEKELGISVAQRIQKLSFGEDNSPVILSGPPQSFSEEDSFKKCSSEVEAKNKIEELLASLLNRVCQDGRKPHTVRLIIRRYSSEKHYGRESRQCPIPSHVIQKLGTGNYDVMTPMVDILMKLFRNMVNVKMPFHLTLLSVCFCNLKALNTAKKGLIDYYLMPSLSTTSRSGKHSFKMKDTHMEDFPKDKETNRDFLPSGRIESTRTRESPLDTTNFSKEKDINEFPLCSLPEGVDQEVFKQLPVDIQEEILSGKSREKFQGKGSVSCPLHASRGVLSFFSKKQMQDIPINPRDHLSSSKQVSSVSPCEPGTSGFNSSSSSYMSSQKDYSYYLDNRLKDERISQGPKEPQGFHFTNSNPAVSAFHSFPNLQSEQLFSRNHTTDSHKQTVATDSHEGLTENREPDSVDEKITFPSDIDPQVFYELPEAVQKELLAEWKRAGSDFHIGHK

The molecules below were run against DNA polymerase iota (Homo sapiens) (UniProt Q9UNA4) (assay: qHTS for Inhibitors of Polymerase Iota). Conditions: Pol iota fluorescent replication assay, 10 min; series mostly up to 115 µM.
Procedure, shortened: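 Pol iota at 10 nM preincubated 15 min with compounds at room temperature; reaction started with fluorescent substrate, 50 nM final. Fluorescence read kinetically at 0 and 10 min; buffer-only wells as negative control.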
Potency is the fitted concentration of half-maximal effect.

Compound | Potency
O=C(O)CC[C@H](NC(=O)c1ccccc1C(=O)O)C(=O)O | inactive
Cc1ccc(Nc2nc(-c3sc(N)nc3C)cs2)cc1 | inactive
O=c1[nH]cnc(O)c1C(c1ccc(F)cc1)c1c(O)nc[nH]c1=O | inconclusive: 70.8 µM [inhibitor, single point]
CC(C)(C)OC(=O)N1CCC(c2c(C(=O)NCc3ccco3)cnn2-c2ccc(F)cc2F)CC1 | inactive
CCOc1cc(/C=C2\CN(C)C/C(=C\c3ccc(O)c(OCC)c3)C2=O)ccc1O | inconclusive: 56.2 µM [inhibitor, partial curve, poor fit]
COc1cc(C(C)=O)ccc1OCC(O)CN1CCN(c2ccc(C)cc2C)CC1 (stereo not drawn) | inactive
COc1ccccc1-n1c(SCC(N)=O)nc2sc3c(c2c1=O)CCC3 | inconclusive: 20 µM [inhibitor, partial curve, poor fit]
COC(=O)c1cc(Br)c(=O)n(-c2cccc(F)c2)c1 | inconclusive: 3.16 µM [inhibitor, single point]
O=C(COC(=O)CNS(=O)(=O)c1ccc(Br)cc1Cl)NC1CCCC1 | inconclusive: 63.1 µM [inhibitor, partial curve, poor fit]
CCOc1cccc2sc(NC(=O)c3ccc(S(=O)(=O)N4CCCCC4)cc3)nc12 | inactive
COc1ccc(NC(=O)c2cc(=O)c3cc(C)cc(C)c3o2)cc1 | inactive
COc1ccc(CC(NC(C)=O)C(=O)NC2CCN(c3c(Cc4ccccc4)c(C)nc4ncnn34)CC2)c(OC)c1 (stereo not drawn) | inconclusive: 89.1 µM [inhibitor, single point]
O=C(O)c1cccc(-n2cccc2/C=C2/NC(=O)N(c3ccc(Cl)cc3)C2=O)c1 | inconclusive: 1 µM [inhibitor, full curve, poor fit]
CCOC(=O)N1CCN(c2c(NCc3ccc(N(C)C)cc3)c(=O)c2=O)CC1 | inconclusive: 100 µM [inhibitor, single point]
CCCS(=O)(=O)c1nc(S(=O)(=O)c2ccc(C)cc2)c(NCC(C)C)s1 | inactive
Cc1ccc(COn2c(-c3ccc(Cl)cc3Cl)nc3ncccc32)cc1 | inconclusive: 25.1 µM [inhibitor, partial curve, poor fit]
NC(=S)n1[nH]c(-c2ccc([N+](=O)[O-])cc2)c(N=Nc2ccc(O)cc2)c1=O | inconclusive: 28.2 µM [inhibitor, partial curve, poor fit]
CCSc1nc2sc3c(c2c2[n+]1CC(CBr)O2)CCCC3 (stereo not drawn) | inconclusive: 39.8 µM [inhibitor, single point]
C=C(C)C(=O)Nc1cccc(C2=NOC3(C2)C[C@@H](C(N)=O)N(C(=O)c2cc([N+](=O)[O-])cc([N+](=O)[O-])c2)C3)c1 (stereo partly drawn) | inconclusive: 50.1 µM [inhibitor, partial curve]
CN(C)c1ccc(C(=O)c2ccccc2C(=O)O)cc1[N+](=O)[O-] | inconclusive: 100 µM [inhibitor, single point]
O=C(CSc1nc(-c2ccco2)nc2cc(=O)[nH]n12)Nc1ccc(F)cc1 | inconclusive: 89.1 µM [inhibitor, single point]

3 entries out of the list, ordered by length of the SMILES, high to low.
Compound | Potency
O=C(O)c1cccc(-n2cccc2/C=C2/NC(=O)N(c3ccc(Cl)cc3)C2=O)c1 | inconclusive: 1 µM [inhibitor, full curve, poor fit]
CCOC(=O)N1CCN(c2c(NCc3ccc(N(C)C)cc3)c(=O)c2=O)CC1 | inconclusive: 100 µM [inhibitor, single point]
COC(=O)c1cc(Br)c(=O)n(-c2cccc(F)c2)c1 | inconclusive: 3.16 µM [inhibitor, single point]

(continued)

Compound | Potency
Cc1ccc(OCc2nnc(NC(=O)c3ccco3)s2)c(C)c1 | inconclusive: 44.7 µM [inhibitor, full curve, poor fit]
COc1cccc(C2NC(C)(C(=O)O)C3C(=O)N(C(C)C)C(=O)C23)c1O (stereo not drawn) | inconclusive: 0.631 µM [inhibitor, full curve, poor fit]
C=CCn1c(Cc2cccs2)nnc1SCC(=O)NCc1ccco1 | inconclusive: 17.8 µM [inhibitor, partial curve, poor fit]
C=C1C(=O)C23CCC4C(C)(C(=O)OC)CCCC4(C)C2CCC1(O)C3 (stereo not drawn) | inconclusive: 31.6 µM [inhibitor, partial curve, poor fit]
Cc1cc(/C=C2\SC(=S)N(Cc3ccco3)C2=O)c(C)n1-c1ccccc1 | inconclusive: 112 µM [inhibitor, partial curve, poor fit]
CCOC(=O)Cc1cc(=O)n2[nH]c(C(C)(C)C)cc2n1 | inactive
O=C(NCC(c1ccc(F)cc1)N1CCOCC1)c1ccc(-c2ccccc2)cc1 (stereo not drawn) | inconclusive: 100 µM [inhibitor, single point]
CC(=O)c1ccc(C(=O)Nc2nnc(-c3ccc(Cl)cc3)o2)cc1 | inconclusive: 89.1 µM [inhibitor, single point]
O=C(/C=C/c1ccccc1)NCc1ccc2c(c1)OCO2 | inactive
COc1ccc(S(=O)(=O)N2CCN(c3nc(-c4cccs4)nc4ccccc34)CC2)cc1 | inconclusive: 25.1 µM [inhibitor, full curve, poor fit]
O=C(CCN1C(=O)S/C(=C\c2ccc(Cl)cc2)C1=O)Nc1ccc(C(=O)O)cc1 | inconclusive: 39.8 µM [inhibitor, single point]
COC(=O)c1c(C)oc2ccc(N(C(=O)Oc3ccccc3)S(=O)(=O)c3ccc(Cl)c([N+](=O)[O-])c3)cc12 | active: 44.7 µM
CCc1cccc2c(C=C(C#N)C#N)cn(CC(=O)N3CCCCCC3)c12 | inconclusive: 89.1 µM [inhibitor, single point]
O=C(Cc1ccccc1Nc1c(Cl)cccc1Cl)OCO/N=[N+](\[O-])N1CCCC1 | inconclusive: 15.8 µM [inhibitor, partial curve, poor fit]
Cc1ccc(-n2cccc2/C=C2/C(=N)N3C(=NC2=O)SN=C3S(C)(=O)=O)cc1 | active: 17.8 µM
Cc1ccc(-c2c(C(=O)N/N=C/c3cccnc3)nnn2-c2nonc2N)cc1 | inactive
Cc1cccc2c1NC1(CCCC1)CC2C (stereo not drawn) | inconclusive: 14.1 µM [inhibitor, partial curve, poor fit]
Cc1oc(-c2cc(F)ccc2F)nc1CN1CCN(C)C(=O)[C@@H]1C | inconclusive: 79.4 µM [inhibitor, partial curve, poor fit]
COc1cc(C(=O)Nc2sc3c(c2C#N)CCCC3)c(Br)c(OC)c1OC | inactive
S=c1[nH]nc(COc2ccc3ccccc3c2)o1 | inactive
CCc1nnc(N/N=C/c2ccc(O)c(OC)c2)n1N | active: 8.91 µM

Compound | Potency
COc1ccc(/C=C/C(=O)c2c(O)c(OC)c3occc3c2OC)cc1 | inconclusive: 20 µM [inhibitor, partial curve, poor fit]
COc1cc(NC(=O)c2cccnc2Sc2ccc(C)c(C)c2)cc(OC)c1OC | inconclusive: 89.1 µM [inhibitor, single point]
O=C(O)Cc1sc(Nc2ccccc2)nc1-c1cccs1 | inconclusive: 20 µM [inhibitor, partial curve, poor fit]
COC(=O)C1C(O)=C(C(C)=Nc2cccc3ccccc23)C(=O)CC1(C)C (stereo not drawn) | inconclusive: 22.4 µM [inhibitor, single point]
Cc1cc(OC(=O)c2ccc(S(=O)(=O)N(C)C)cc2)cc(=O)o1 | inconclusive: 28.2 µM [inhibitor, single point]
CN(C)C(CNC(=O)c1ccc2nccnc2c1)c1ccco1 (stereo not drawn) | inconclusive: 12.6 µM [inhibitor, full curve, poor fit]
COc1ccc(OC)c(C2C(C(C)=O)=C(O)C(=O)N2Cc2cccnc2)c1 (stereo not drawn) | inconclusive: 39.8 µM [inhibitor, single point]
CC(C)C[C@H]1C(=O)N2CCCC2[C@]2(O)O[C@](NC(=O)[C@@H]3C=C4c5cccc6[nH]c(Br)c(c56)C[C@H]4N(C)C3)(C(C)C)C(=O)N12 (stereo partly drawn) | inactive
Cc1csc(C(=O)NN)c1N(C)C | inconclusive: 11.2 µM [inhibitor, partial curve, poor fit]
O=c1c(Cl)c(Cl)cnn1Cc1nnc(-c2ccccc2Br)o1 | inconclusive: 15.8 µM [inhibitor, partial curve, poor fit]
CCc1nnc(NC(=O)CSc2nccn2Cc2ccccc2)s1 | inconclusive: 89.1 µM [inhibitor, partial curve, poor fit]
Cn1c(NNC(=O)c2c(F)cccc2F)cc(=O)n(C)c1=O | inconclusive: 25.1 µM [inhibitor, single point]
O=C(COCc1cc(-c2ccc3c(c2)OCO3)on1)N1CCCCC1 | inconclusive: 44.7 µM [inhibitor, partial curve, poor fit]
COc1ccc(CC2(CO)CCN(Cc3cnn(-c4ccc(F)cc4)c3)CC2)cc1 | inconclusive: 100 µM [inhibitor, partial curve, poor fit]
Cc1ccc(S(=O)(=O)N/N=C\c2cc3c(cc2[N+](=O)[O-])OCO3)cc1 | inconclusive: 15.8 µM [inhibitor, partial curve, poor fit]
CCc1ccc(OCC(O)CN2CCN(c3ccc(OC)cc3)CC2)cc1 (stereo not drawn) | inconclusive: 50.1 µM [inhibitor, partial curve, poor fit]
COc1ccccc1C(=O)Nc1ccc2c(c1)nc1n2CCSC1 | inconclusive: 28.2 µM [inhibitor, partial curve, poor fit]
C=C(C)C1Cc2c(C)nn(-c3nc(C)cc(C)n3)c2C1 (stereo not drawn) | inconclusive: 12.6 µM [inhibitor, partial curve, poor fit]
C/C(=N\NC(=S)Nc1ccc(F)cc1)C1CC1 | inconclusive: 44.7 µM [inhibitor, partial curve, poor fit]
CC1C(=O)NN=C1c1ccc([N+](=O)[O-])cc1 (stereo not drawn) | inactive
CC(C)CCNC(=O)c1c[nH]c2ccc(S(=O)(=O)Nc3cccc(C(F)(F)F)c3)cc2c1=O | inconclusive: 79.4 µM [inhibitor, partial curve]
